These results are taken from the supplement of paper PMC12067093, “Discovery and optimisation of a covalent ligand for TRIM25 and its application to targeted protein ubiquitination” (Chemical Science, 2025).

Compound in this test: Cc1cc(ccc1-c1ccccc1)C(=O)N1CCCN(CC1)C(=O)CCl [compound 10]
As to the kind of experiment: probe-labelled cysteine peptide fold change vs DMSO (competition) (log2 fold change); higher = less target engagement (more negative = stronger competition). The conditions noted are these: THP-1, incubation time: 4 h.

The list shows a part of the results.
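Also: competitive profiling in live THP-1 cells: cysteine peptides tagged with an iodoacetamide desthiobiotin (IA-DTB) probe, intensity after compound treatment relative to DMSO-treated cells.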

For the target “NANS_Q9NR45_184_PLNPNFCFLQCTSAYPLQPEDVNLR (UniProt Q9NR45)”, the “probe-labelled cysteine peptide fold change” value by setting is: (10 µM) 0.154; (50 µM) 0.204.

Turning to “NCAPH2_Q6IBW4_309_EREGAPEPASCVK (UniProt Q6IBW4)”, the “probe-labelled cysteine peptide fold change” value (10 µM) is -0.225 and the “probe-labelled cysteine peptide fold change” value (50 µM) was -0.254.

Consider “NANS_Q9NR45_19_WVGGQHPCFIIAEIGQNHQGDLDVAKR (UniProt Q9NR45)”, for which the “probe-labelled cysteine peptide fold change” value (10 µM) was 0.167 and the “probe-labelled cysteine peptide fold change” value (50 µM) is -0.417.

For “NAP1L4_Q99733_250_ADPFSFEGPEIVDCDGCTIDWK (UniProt Q99733)”, the “probe-labelled cysteine peptide fold change” value runs as follows: (10 µM) 0.205; (50 µM) 0.326.

On to “NACC1_Q96RE7_178_TEQQESDSVQCMPVAK (UniProt Q96RE7)”, for which the “probe-labelled cysteine peptide fold change” value (10 µM) was -0.621 and the “probe-labelled cysteine peptide fold change” value (50 µM) was -0.0636.

For “MYOF_Q9NZM1_409_KVCTNIIEK (UniProt Q9NZM1)”, the “probe-labelled cysteine peptide fold change” value was -0.176 (10 µM) and -0.0115 (50 µM).

Consider “NCF2_P19878_40+45_ICFNIGCMYTILK (UniProt P19878)”, for which the “probe-labelled cysteine peptide fold change” value (10 µM) is -0.00566 and the “probe-labelled cysteine peptide fold change” value (50 µM) was -0.4.

For the target “MYO19_Q96H55_826_MACLAAK (UniProt Q96H55)”, the “probe-labelled cysteine peptide fold change” value runs as follows: (10 µM) -0.352; (50 µM) 0.0221.

For the target “NCBP1_Q09161_332_TCAAQLVSYPGK (UniProt Q09161)”, the “probe-labelled cysteine peptide fold change” value reads like this: (10 µM) -0.13; (50 µM) -0.141.

With “MYO1G_B0I1T2_97_SRDTCIVISGESGAGK (UniProt B0I1T2)”, the “probe-labelled cysteine peptide fold change” value reads like this: (10 µM) -0.0723; (50 µM) -0.0978.

“MYOF_Q9NZM1_969_AASPSELTCPPGWEWEDDAWSYDINR (UniProt Q9NZM1)”: the “probe-labelled cysteine peptide fold change” value (10 µM) was found to be 0.162 and the “probe-labelled cysteine peptide fold change” value (50 µM) stood at 0.483.

“NAPA_P54920_42_IEEACEIYAR (UniProt P54920)”: the “probe-labelled cysteine peptide fold change” value runs as follows: (10 µM) 0.045; (50 µM) 0.00163.

In the case of “NANP_Q8TBE9_49_EEAEIICDK (UniProt Q8TBE9)”, the “probe-labelled cysteine peptide fold change” value is 0.0178 (10 µM) and 0.356 (50 µM).

“MYO6_Q9UM54_514_EGLGVNEVHYVDNQDCIDLIEAK (UniProt Q9UM54)”: the “probe-labelled cysteine peptide fold change” value is -0.0692 (10 µM) and 0.0844 (50 µM).

Turning to “NAT1_P18440_233_SFCSLQTPDGVHCLVGFTLTHR (UniProt P18440)”, the “probe-labelled cysteine peptide fold change” value is, setting by setting: (10 µM) -0.16; (50 µM) -0.0253.

Take “NBN_O60934_323_NYCDPQGHPSTGLK (UniProt O60934)”: the “probe-labelled cysteine peptide fold change” value is, setting by setting: (10 µM) 0.0867; (50 µM) 0.00867.

“NAPRT_Q6XQN6_254_AQVWLEQVCAHLGLGVQEPHPGER (UniProt Q6XQN6)”: the “probe-labelled cysteine peptide fold change” value by setting is: (10 µM) 0.0383; (50 µM) 0.0802.

For the target “NASP_P49321_254_SVSGTDVQEECR (UniProt P49321)”, the “probe-labelled cysteine peptide fold change” value reads like this: (10 µM) 0.127; (50 µM) 0.0137.

On to “NCAPD3_P42695_143_CIQTLK (UniProt P42695)”, for which the “probe-labelled cysteine peptide fold change” value (10 µM) stood at 0.0679 and the “probe-labelled cysteine peptide fold change” value (50 µM) worked out at 0.134.

On to “NBEAL2_Q6ZNJ1_1661_CSWLVPLVR (UniProt Q6ZNJ1)”, for which the “probe-labelled cysteine peptide fold change” value (10 µM) turned out to be 0.185 and the “probe-labelled cysteine peptide fold change” value (50 µM) is 0.0341.

As to “NAPRT_Q6XQN6_48_CPFGGAFALAAGLR (UniProt Q6XQN6)”, the “probe-labelled cysteine peptide fold change” value is -0.753 (10 µM) and 0.174 (50 µM).

“NBEAL2_Q6ZNJ1_2335_ALEGIISNFGQTPCQLLK (UniProt Q6ZNJ1)”: the “probe-labelled cysteine peptide fold change” value reads like this: (10 µM) -0.107; (50 µM) 0.0182.

Consider “NCBP1_Q09161_261_HILRPYLAFDSILCEALQHNLPPFTPPPHTEDSVYPMPR (UniProt Q09161)”, for which the “probe-labelled cysteine peptide fold change” value (10 µM) was 0.0928 and the “probe-labelled cysteine peptide fold change” value (50 µM) stood at 0.119.

As for “NADSYN1_Q6IA69_627_HICTPR (UniProt Q6IA69)”, the “probe-labelled cysteine peptide fold change” value by setting is: (10 µM) -0.683; (50 µM) 0.168.

As to “NCAPG_Q9BPX3_177_LQDPKDDECPVVNAYATLIENDSNPEVR (UniProt Q9BPX3)”, the “probe-labelled cysteine peptide fold change” value is, setting by setting: (10 µM) -0.282; (50 µM) 0.398.

For the target “NADK2_Q4G0N4_193_LKPVIGVNTDPERSEGHLCLPVR (UniProt Q4G0N4)”, the “probe-labelled cysteine peptide fold change” value runs as follows: (10 µM) -0.0613; (50 µM) 0.021.

As for “MYO9B_Q13459_863_KELCFDDELVLQQLR (UniProt Q13459)”, the “probe-labelled cysteine peptide fold change” value is, setting by setting: (10 µM) -0.207; (50 µM) 0.182.

For “NBAS_A2RRP1_1771_LQYYFTLLENCGCADLGNCAIKPETHIR (UniProt A2RRP1)”, the “probe-labelled cysteine peptide fold change” value was -0.181 (10 µM) and -0.206 (50 µM).

As for “NCAPH_Q15003_239_CEIDPMFQK (UniProt Q15003)”, the “probe-labelled cysteine peptide fold change” value (10 µM) is -0.0722 and the “probe-labelled cysteine peptide fold change” value (50 µM) was -0.205.

On to “MYO6_Q9UM54_362_VVAGVLHLGNIDFEEAGSTSGGCNLK (UniProt Q9UM54)”, for which the “probe-labelled cysteine peptide fold change” value (10 µM) was -0.00821 and the “probe-labelled cysteine peptide fold change” value (50 µM) amounted to 0.0127.

Take “MYO1F_O00160_807_GQVCEVLK (UniProt O00160)”: the “probe-labelled cysteine peptide fold change” value is, setting by setting: (10 µM) -0.113; (50 µM) 0.0323.

With “NAA25_Q14CX7_235_CMAMYK (UniProt Q14CX7)”, the “probe-labelled cysteine peptide fold change” value is -0.242 (10 µM) and -0.0999 (50 µM).

With “NAXD_Q8IW45_261_GERDILSNGQQVLVCSQEGSSR (UniProt Q8IW45)”, the “probe-labelled cysteine peptide fold change” value was determined as 0.321 (10 µM) and 0.0807 (50 µM).

With “NAA35_Q5VZE5_409_CYLYNNHQAK (UniProt Q5VZE5)”, the “probe-labelled cysteine peptide fold change” value is, setting by setting: (10 µM) -0.0926; (50 µM) -0.537.

Consider “MYO9A_B2RTY4_1973_TSDCTATK (UniProt B2RTY4)”, for which the “probe-labelled cysteine peptide fold change” value is, setting by setting: (10 µM) -0.0627; (50 µM) -0.22.

“NCAPH_Q15003_397+402_EPCQVQSCQEEMISLGDGDIR (UniProt Q15003)”: the “probe-labelled cysteine peptide fold change” value runs as follows: (10 µM) -0.189; (50 µM) -0.308.

Consider “NAP1L4_Q99733_77_CAHIEAK (UniProt Q99733)”, for which the “probe-labelled cysteine peptide fold change” value (10 µM) came out at 0.0717 and the “probe-labelled cysteine peptide fold change” value (50 µM) was 0.0178.

As to “NAPA_P54920_103_KADPQEAINCLMR (UniProt P54920)”, the “probe-labelled cysteine peptide fold change” value amounted to 0.277 (10 µM) and 0.121 (50 µM).

Regarding “MYOF_Q9NZM1_1660_FGSHCGIPEEYCVSGVNTWR (UniProt Q9NZM1)”, the “probe-labelled cysteine peptide fold change” value (10 µM) was -0.193 and the “probe-labelled cysteine peptide fold change” value (50 µM) amounted to 0.0243.

As for “NAA15_Q9BXJ9_238_LAVEETKGELLLQLCR (UniProt Q9BXJ9)”, the “probe-labelled cysteine peptide fold change” value (10 µM) is -0.199 and the “probe-labelled cysteine peptide fold change” value (50 µM) is -0.704.

Take “NADK2_Q4G0N4_193_SEGHLCLPVR (UniProt Q4G0N4)”: the “probe-labelled cysteine peptide fold change” value by setting is: (10 µM) -0.0947; (50 µM) 0.146.

Consider “NAA16_Q6N069_82_SHVCWHVYGLLQR (UniProt Q6N069)”, for which the “probe-labelled cysteine peptide fold change” value runs as follows: (10 µM) -0.196; (50 µM) 0.182.
